Literature values as cited in patent publication US8933028B2, “Use of selective estrogen receptor modulator for joint fusion and other repair or healing of connective tissue” (priority 2010, dated 2015).

System: bone
Settings: postmenopausal women with low bone density; cited from earlier work

For `NCCCC(O)(P(=O)(O)O)P(=O)(O)O` [alendonate], the “bone density and bone turnover comparing to raloxifene” value is given as “high bone density and lower bone turnover”.
